The list shows a part of the results. The main result of the screen is listed elsewhere. These columns were measured beside it and carry no call. The list favours compounds with an active or inconclusive main result. Words in brackets tell the shape of the fitted curve; partial curves, single points and poor fits give uncertain potencies.
Experiment: qHTS Assay for Lipid Storage Modulators in Drosophila S3 Cells;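 on cell number change: cells counted by Cell Tracker Red CMTPX staining in the red channel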
Conditions: BODIPY lipid droplet fluorescence, 18-24 h; for cell number change: measured here: cell count max response, cells fed with added oleic acid
Procedure, shortened: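 Laser-scanning cytometry quantifies lipid droplet accumulation (500–530 nm total intensity; droplet/cell object ratio) in oleic acid-fed (400 uM added) Drosophila S3 cells treated with a concentration series. 20 uM Triacsin C defined 100% inhibition.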

[1] = measured here: cell number channel AC50, cells fed with added oleic acid
[2] = measured here: lipid fluorescence (Fed channel) AC50, cells fed with added oleic acid

SMILES	cell number change [%]	AC50 [1]	AC50 [2]
Cc1ccc(SCC(=O)OCC(=O)NCCC2=CCCCC2)cc1	-25	0.651 µM [falling, full curve, poor fit]	–
COC(=O)C1=C(C)NC(=O)CC1c1cc(Br)ccc1F (stereo not drawn)	85.3	29.1 µM [rising, single point]	–
COc1ccc(Cc2nc3ccc(C(=O)N(C)CCc4cnn(C)c4)cc3o2)cc1OC	–	–	6.51 µM [falling, single point]
COC(=O)c1cc(C(C)=O)c(C)[nH]c1=O	-0.94	–	6.51 µM [falling, single point]
CCCCCCCCCCCCCCCCn1cc[n+](CC(C)=O)c1	-81.9	14.6 µM [falling, partial curve]	16.4 µM [falling, partial curve]
NS(=O)(=O)c1cccc(NC(=O)CC23CC4CC(CC(Br)(C4)C2)C3)c1	0.794	–	18.4 µM [rising, single point]
O=C(Cc1ccc(Cl)cc1)Nc1ccc(Br)cc1	-8.61	0.651 µM [falling, single point]	–
NC(=O)c1cc(S(=O)(=O)N2CCOCC2)ccc1Sc1ccccc1N	-1.3	–	–
O=C(COC(=O)c1ccc(O)cc1)c1ccc(S(=O)(=O)N2CCCCC2)cc1	-35.6	32.6 µM [falling, single point]	0.00517 µM [falling, full curve, poor fit]
O=C(NCCc1ccccc1)C(c1cccs1)N(C(=O)CCl)c1ccc(Cl)cc1 (stereo not drawn)	-14.7	–	18.4 µM [falling, single point]
CC(C)[C@H](NC(N)=O)C(=O)Nc1ccc2c(c1)CCC2	-34.6	25.9 µM [falling, single point]	0.651 µM [falling, full curve]
O=C(NCCNC(=O)c1ccccn1)c1ccccc1	-2.63	0.058 µM [falling, full curve, poor fit]	–
CCCC(NC(=O)Cc1c(C)c2c(cc(C)c3c(C)coc32)oc1=O)C(=O)O (stereo not drawn)	4.96	–	29.1 µM [rising, single point]
COc1ccc(CCN(C)C(=O)C2CCN(Cc3ccccc3)CC2)cc1OC	-2.98	–	–
Cc1ccc(OCc2cc(C(=O)N3CCN(C4CCCCC4)CC3)no2)cc1C	-18.5	–	–
CCn1c(/N=C/c2c[nH]c3ccccc23)nc2ccccc21	-37.2	18.4 µM [falling, single point]	29.1 µM [falling, single point]
COc1cccc(C(=O)NCc2cn3ccsc3n2)c1	67.5	–	–
Cc1cccc(N2CCN(CC(O)COc3ccc(Cl)cc3)CC2)c1 (stereo not drawn)	-34.4	16.4 µM [falling, single point]	29.1 µM [falling, single point]
C=CCSc1nc2c(sc3nc(C)cc(C)c32)c(=O)[nH]1	-12.4	–	0.58 µM [rising, single point]
O=C(Nc1ccc(S(=O)(=O)N2CCCCC2)cc1)C1CC(=O)N(c2ccccc2)C1 (stereo not drawn)	19.7	0.0058 µM [rising, full curve, poor fit]	–
Cc1cccc(NC(=S)N/N=C/c2c[nH]c3ccccc23)c1	-40	18.4 µM [falling, single point]	–

SMILES	cell number change [%]	AC50 [1]	AC50 [2]
COCCn1c(Cc2ccccc2)nnc1SCC(=O)NC(C)C	12.9	–	29.1 µM [falling, single point]
O=C(Nc1ccc(Cl)cc1)C(c1ccccc1)N1CCOCC1 (stereo not drawn)	4.78	–	–
CCC(C)Sc1nc2c(c(=O)[nH]c(=O)n2C)n1Cc1ccccc1Cl (stereo not drawn)	–	4.61 µM [rising, partial curve]	4.11 µM [rising, partial curve]
N#CC1=C(N)Nc2nc3ccccc3n2C1c1ccc(Cl)cc1 (stereo not drawn)	–	0.58 µM [falling, single point]	2.31 µM [rising, partial curve]
CCOc1ccccc1/C=C\c1nc(O)c([N+](=O)[O-])c(=O)[nH]1	35.6	32.6 µM [rising, single point]	13 µM [rising, partial curve, poor fit]
CCN(Cc1ccncc1)C(=O)c1cc(COc2c(C)cccc2C)on1	15.4	–	6.31 µM [rising, single point]
CCCNC(=O)CS(=O)Cc1nc(-c2ccc(OC)cc2)oc1C (stereo not drawn)	17.3	–	–
Cc1cccc(N2C(=O)NC3(CCCCC3)C2=O)c1	9.08	–	–
COc1ccc(C(=O)NCC(=O)OCC(=O)Nc2cc(OC)ccc2OC)cc1	–	6.51 µM [falling, single point]	–
CSc1ncccc1C(=O)Nc1cccc(C)n1	-55.2	–	–
O=C(Nc1c2c(nn1-c1ccccc1)CS(=O)(=O)C2)c1ccco1	15.5	–	0.0206 µM [rising, full curve, poor fit]
COc1cccc2oc3ccc(C#Cc4ccccn4)cc3c(=O)c12	–	–	0.461 µM [falling, partial curve, poor fit]
O=C(CSc1nc(N2CCOCC2)nc(N2CCOCC2)n1)Nc1cccc(C(F)(F)F)c1	31	–	–
OCC1CCN(Cc2nc(Cc3ccccc3Cl)no2)CC1	-9.62	–	0.116 µM [falling, full curve, poor fit]
O=C(NCc1ccco1)c1ccc(C(=O)NCc2ccco2)s1	3.8	–	–
CC1CCN(S(=O)(=O)c2ccc(C(=O)Nc3nnc(C4CC4)o3)cc2)CC1	-17.7	0.0366 µM [falling, full curve, poor fit]	–
O=C(Cc1cccs1)Nc1nc2c(ccc3ccccc32)s1	-32.2	29.1 µM [falling, single point]	–
COC(=O)c1cccc(-c2ccc(C(c3c(C)[nH][nH]c3=O)c3c(C)[nH][nH]c3=O)o2)c1	-65.7	29.1 µM [falling, partial curve, poor fit]	–
CCOC(=O)N1CCN(S(=O)(=O)N2CCCC(C(=O)NCc3ccc(F)cc3)C2)CC1 (stereo not drawn)	-9.17	–	6.51 µM [falling, single point]
COc1ccc(NC(=O)CCS(=O)(=O)c2ccc3c(c2)CCN3C(C)=O)cc1	8.56	–	29.1 µM [rising, single point]
COc1ccc(C(=O)NCc2ccccc2OC)c(OC)c1	-6.75	–	7.31 µM [rising, partial curve, poor fit]

SMILES	cell number change [%]	AC50 [1]	AC50 [2]
Cc1ccc(S(=O)(=O)CCC(=O)Nc2nc(-c3cccnc3)cs2)cc1	–	–	14.6 µM [falling, partial curve]
CCOC(=O)/C(C#N)=C/C=C1\C=Cc2ccccc2N1CC	-0.955	–	10.3 µM [falling, partial curve, poor fit]
O=C1NC2(CCCCC2)N(C(=O)c2ccccc2)C2=C1CCCC2	-33.9	23.1 µM [falling, single point]	–
O=C(CNCCC1=CCCCC1)Nc1ccc(N2CCCCCC2)cc1	-90.6	20.6 µM [falling, single point]	–
C/C(O)=C(\C#N)c1nc2ccccc2[nH]1	96.9	11.6 µM [rising, partial curve, poor fit]	20.6 µM [rising, partial curve]
N#CCCn1cc(C(=O)N2CCCCC2)c(-c2cccc([N+](=O)[O-])c2)n1	–	–	6.51 µM [falling, single point]
Cn1cccc1/C=C1/SC(=S)N(CC(=O)O)C1=O	15	0.0058 µM [rising, full curve, poor fit]	0.231 µM [rising, full curve, poor fit]
CCc1nnc(NC(=O)c2ccc(S(=O)(=O)NCC(C)C)cc2)s1	-15	–	0.651 µM [falling, single point]
CCc1ccc(-n2nc3cc(C)c(N)cc3n2)cc1	-21.8	–	–
O=C(Nc1nc(-c2ccc(F)c(F)c2)cs1)Nc1ccc(F)cc1F	103	9.2 µM [rising, partial curve]	16.4 µM [falling, single point]
O=C(CCNc1ccc(Br)cc1)c1cccc([N+](=O)[O-])c1	-44.7	–	–
O=c1c2cc(N3CCOCC3)ccc2[nH]c(=S)n1CCCN1CCCC1	45.8	29.1 µM [rising, single point]	20.6 µM [rising, single point]
CC(NC(=O)NCC1CCCO1)(C(F)(F)F)C(F)(F)F (stereo not drawn)	-29.6	0.651 µM [falling, full curve, poor fit]	0.651 µM [falling, full curve]
COc1ccc(C(C)=O)cc1CC(=O)NCCCn1ccnc1	-0.901	–	29.1 µM [falling, single point]
COCCNC(=S)N1CCc2cc(OC)c(OC)cc2C1COc1ccc(C(C)C)cc1 (stereo not drawn)	0.879	–	–
Cc1cccnc1NC(=O)c1ccc(COc2ccccc2)o1	24	–	9.2 µM [rising, partial curve, poor fit]
COc1ccc(NC(=S)N2CCN(Cc3ccccc3)CC2)c(OC)c1	-25.9	0.0731 µM [falling, full curve, poor fit]	–
O=C(Nc1cc(Cl)ccc1Cl)c1ccc(OC(=O)c2ccco2)cc1	101	18.4 µM [rising, single point]	29.1 µM [rising, single point]
Cc1c(O)c(=O)ccn1C	12.8	–	0.517 µM [rising, full curve, poor fit]
C/C(CC(=O)Nc1cccc(F)c1)=N\NC(=O)C(=O)NC1CCCCC1	8.61	3.66 µM [falling, partial curve]	–

A draw from above in order of molecular weight, smallest number first.
SMILES	cell number change [%]	AC50 [1]	AC50 [2]
Cc1cccnc1NC(=O)c1ccc(COc2ccccc2)o1	24	–	9.2 µM [rising, partial curve, poor fit]
O=C(NCc1ccco1)c1ccc(C(=O)NCc2ccco2)s1	3.8	–	–
Cc1cccc(N2CCN(CC(O)COc3ccc(Cl)cc3)CC2)c1 (stereo not drawn)	-34.4	16.4 µM [falling, single point]	29.1 µM [falling, single point]
CCC(C)Sc1nc2c(c(=O)[nH]c(=O)n2C)n1Cc1ccccc1Cl (stereo not drawn)	–	4.61 µM [rising, partial curve]	4.11 µM [rising, partial curve]
Cc1ccc(S(=O)(=O)CCC(=O)Nc2nc(-c3cccnc3)cs2)cc1	–	–	14.6 µM [falling, partial curve]
